Sequences of proteins named here, by UniProt entry; tags and fusion partners are left off.
UniProt Q14191, whole entry, looked up: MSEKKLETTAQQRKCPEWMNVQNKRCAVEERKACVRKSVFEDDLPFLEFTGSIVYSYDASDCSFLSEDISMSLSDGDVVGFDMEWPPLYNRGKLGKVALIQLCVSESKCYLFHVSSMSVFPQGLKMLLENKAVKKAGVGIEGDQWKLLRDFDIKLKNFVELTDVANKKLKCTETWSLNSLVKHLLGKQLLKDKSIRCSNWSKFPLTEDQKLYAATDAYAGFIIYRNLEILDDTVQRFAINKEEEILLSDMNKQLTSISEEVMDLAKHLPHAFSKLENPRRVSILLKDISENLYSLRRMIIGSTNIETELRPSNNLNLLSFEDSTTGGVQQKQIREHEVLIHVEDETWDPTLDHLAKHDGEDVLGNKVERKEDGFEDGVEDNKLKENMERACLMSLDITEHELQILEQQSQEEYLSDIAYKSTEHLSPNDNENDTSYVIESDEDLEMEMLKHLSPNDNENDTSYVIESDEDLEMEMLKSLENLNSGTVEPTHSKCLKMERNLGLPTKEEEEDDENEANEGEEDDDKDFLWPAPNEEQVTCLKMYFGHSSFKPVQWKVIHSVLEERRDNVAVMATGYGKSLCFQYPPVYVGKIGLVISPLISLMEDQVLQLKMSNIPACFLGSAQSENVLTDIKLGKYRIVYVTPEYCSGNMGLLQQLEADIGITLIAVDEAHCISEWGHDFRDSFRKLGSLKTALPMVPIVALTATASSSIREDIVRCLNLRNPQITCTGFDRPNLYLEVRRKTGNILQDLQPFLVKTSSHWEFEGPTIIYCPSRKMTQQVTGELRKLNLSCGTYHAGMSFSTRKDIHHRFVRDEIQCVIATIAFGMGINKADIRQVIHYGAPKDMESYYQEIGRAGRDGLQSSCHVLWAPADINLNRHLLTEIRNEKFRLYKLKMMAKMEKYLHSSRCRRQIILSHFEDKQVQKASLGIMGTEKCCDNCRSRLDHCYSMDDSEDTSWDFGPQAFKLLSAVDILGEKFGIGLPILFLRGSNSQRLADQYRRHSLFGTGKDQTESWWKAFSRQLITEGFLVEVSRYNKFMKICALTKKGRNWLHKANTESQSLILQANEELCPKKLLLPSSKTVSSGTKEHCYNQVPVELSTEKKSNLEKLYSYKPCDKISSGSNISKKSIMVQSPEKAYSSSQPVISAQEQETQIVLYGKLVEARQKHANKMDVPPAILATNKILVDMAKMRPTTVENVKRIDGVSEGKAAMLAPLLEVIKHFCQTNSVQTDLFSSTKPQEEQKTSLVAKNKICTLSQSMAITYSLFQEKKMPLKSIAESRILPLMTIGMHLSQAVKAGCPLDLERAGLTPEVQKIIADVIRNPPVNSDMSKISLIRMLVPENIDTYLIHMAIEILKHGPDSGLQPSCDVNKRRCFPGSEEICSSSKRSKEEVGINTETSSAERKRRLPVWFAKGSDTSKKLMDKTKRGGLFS

About 1,700 (0.47%) of roughly 360,000 compounds were called active. The shares of active, inactive and inconclusive entries below differ from those in the screen. Calls follow the shape of the dose curve; as a rule, active = well fitted inhibition curve with a large enough effect; inconclusive = small, poorly fitted or top-dose-only effect; inactive = no such curve, though single readings can be large or run the other way. Potencies of inconclusive entries are doubtful fits and often do not repeat. Where a structure was tested more than once in an assay, its records may differ in their call.
Each compound was assayed against Bifunctional 3'-5' exonuclease/ATP-dependent helicase WRN (Homo sapiens) (UniProt Q14191) (assay: qHTS for Inhibitors of WRN Helicase). Conditions: WRN helicase unwinding, fluorescent forked duplex, kinetic; activity change, negative = inhibition: at 114 µM (top of the series) unless noted.
In short: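 Screening of the MLSMR collection measured strand separation of a quenched forked DNA duplex (100 nM) by 20 nM WRN with 2 mM ATP, all final. Compounds were preincubated with enzyme 15 min at room temperature.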
With `O=C1NC2CCCCC2C(=O)N1OS(=O)(=O)c1ccccc1` (stereo unspecified) the Potency was active: 50.1 µM. For `O=C(/C=C/c1cccc(Cl)c1)c1nc2ccccc2[nH]1`, the Potency was inconclusive: 56.2 µM [inhibitor, partial curve]. With `O=c1c(C(c2ccc(Br)cc2)c2c(O)nc3n(c2=O)CCS3)c(O)nc2n1CCS2` the Potency was inconclusive: 56.2 µM [inhibitor, partial curve, poor fit]. For `CC(=O)C1C(c2cccc([N+](=O)[O-])c2)C2C(C)=NN=C2CC1(C)O` (stereo unspecified), the Potency was inconclusive: 14.1 µM [inhibitor, partial curve]. In the case of `O=C(OCc1ccccc1)N1CCCCC1c1c(Cl)cccc1Br` (stereo unspecified), the Potency is reported as “inactive”. For `CSC1=N/C(=C\C=C\c2cccs2)C(=O)S1`, the Potency was inconclusive: 6.31 µM [inhibitor, full curve, poor fit]. With `CCc1cc(=O)oc2cc(C)c(CN3CCCCC3)c(O)c12` the Potency was active: 25.1 µM. For `CCCCCCSc1nc(O)c(C2OC(=O)c3c2ccc(OC)c3OC)c(=O)n1-c1ccccc1` (stereo unspecified), the Potency was “inactive”. With `O=C(COC(=O)c1cc(S(=O)(=O)N2CCCC2)ccc1O)Nc1ccccc1Br` the Potency was inconclusive: 14.1 µM [inhibitor, single point]. In the case of `Cc1nc2ccc(Cl)cc2c(-c2ccccc2)c1CC(=O)O`, the Potency is reported as “inactive”. For `COc1nnc(-c2ccc(C)c(S(=O)(=O)NC(C)(C)CO)c2)c2ccccc12`, the Potency was inconclusive: 2.82 µM [inhibitor, partial curve, poor fit]. With `CC12CCC(=O)N1C(C(=O)Nc1cccc3ccccc13)CS2` (stereo unspecified) the Potency was inconclusive: 17.8 µM [inhibitor, full curve, poor fit]. `CSc1nc2[nH]ncc2c(=O)[nH]1` was tested, and the Potency was inconclusive: 89.1 µM [inhibitor, single point]. In the case of `N#Cc1ccc(N=c2ssnc2Cl)cc1`, the Potency is reported as active: 39.8 µM. `Cc1cc[n+](-c2[nH]c(=O)sc2/C=N/NC([S-])=Nc2ccccc2)cc1` was tested, and the Potency was inconclusive: 89.1 µM [inhibitor, partial curve]. `CC(NC(=O)c1ccc2c(c1)C(=O)N(Cc1cccnc1)C2=O)c1ccccc1` (stereo unspecified) was tested, and the Potency was “inactive”. In the case of `CN(C1CCCCC1)S(=O)(=O)c1ccc(=S)[nH]c1`, the Potency is reported as inconclusive: 39.8 µM [inhibitor, partial curve]. With `O=C1N=c2ccccc2=C1c1sc(Nc2ccc(O)cc2)nc1O` the Potency was inconclusive: 15 µM [inhibitor, partial curve]. For `CSc1ncccc1C(=O)OCC(=O)Nc1ccc(S(=O)(=O)N2CCCC2)cc1`, the Potency was inconclusive: 28.2 µM [inhibitor, single point]. `OCCN(CCO)c1cc2c3ccccc3ccc2c2ccccc12` was tested, and the Potency was inconclusive: 22.4 µM [inhibitor, full curve, poor fit]. For `Cc1nnc(NS(=O)(=O)c2ccc(N=Nc3ccc(N)nc3N)cc2)s1`, the Potency was inconclusive: 31.6 µM [inhibitor, partial curve]. `Cc1n[nH]c(C)c1Sc1ccccc1N=Cc1cc(Cl)cc([N+](=O)[O-])c1O` was tested, and the Potency was active: 50.1 µM. With `CC(C)[C@H](NC(=O)c1ccco1)C(=O)OCc1cc(=O)n2c(n1)sc1ccccc12` the Potency was inconclusive: 39.8 µM [inhibitor, full curve, poor fit]. In the case of `CCN(CC)CCCNc1ccc2ncn3c4ccc(O)cc4c(=O)c1c23`, the Potency is reported as active: 25.1 µM. For `COCCCNC(=O)c1ccc2sc(C3=C[C@@H](O)[C@@H](O)[C@@H](CO)O3)nc2c1`, the Potency was “inactive”. For `CC1=NN(c2ccc([N+](=O)[O-])cc2)C(=O)C1`, the Potency was inconclusive: 17.8 µM [inhibitor, full curve]. For `COc1ccc(C2=CC3=C(Br)C(=O)C(C)(O)C(=O)C3=CO2)cc1` (stereo unspecified), the Potency was inconclusive: 50.1 µM [inhibitor, partial curve]. For `O=C(/C=C/c1ccco1)Nc1cccc(C(=O)Nc2ccccc2C(=O)O)c1`, the Potency was inconclusive: 2.99 µM [inhibitor, partial curve]. In the case of `CC(OC(=O)c1nsc(Cl)c1Cl)C(=O)NCc1ccc2c(c1)OCO2` (stereo unspecified), the Potency is reported as “inactive”. With `O=C(NC(=S)Nc1ccc(N2CCOCC2)cc1)c1cccc(Cl)c1` the Potency was inconclusive: 39.8 µM [inhibitor, single point]. In the case of `O=Cc1s/c(=N\S(=O)(=O)c2ccccc2)n(CCCCl)c1Cl`, the Potency is reported as inconclusive: 56.2 µM [inhibitor, partial curve]. `CCO/C(C)=C1/SC(=S)NC1=O` was tested, and the Potency was inconclusive: 8.91 µM [inhibitor, full curve, poor fit]. For `Cc1ccc(NC(=O)C2CCN(S(=O)(=O)c3ccc4c(c3)OCCO4)CC2)c(O)c1`, the Potency was inconclusive: 89.1 µM [inhibitor, single point]. In the case of `C=CCn1c(SCC(=O)c2ccc(O)c(O)c2)nnc1-c1cccc(Cl)c1`, the Potency is reported as active: 17.8 µM. In the case of `CC(=O)Nc1ccc(NC(=O)CSc2nccn2Cc2ccco2)cc1`, the Potency is reported as inconclusive: 100 µM [inhibitor, single point]. `COc1ccc(/C=N/NC(=O)c2ccncc2)cc1Cn1nc([N+](=O)[O-])c(Br)c1C` was tested, and the Potency was inconclusive: 39.8 µM [inhibitor, single point]. In the case of `CCCCCCCCCCCCCCC(O)C[N+](C)(CCO)CCO` (stereo unspecified), the Potency is reported as inconclusive: 20 µM [inhibitor, partial curve]. With `CCOC(=O)C1=C(C)NC(C)=C(C(=O)OCC)C1C` the Potency was inconclusive: 22.4 µM [inhibitor, single point]. In the case of `O=C(NCCNCc1cccs1)c1ccccc1F`, the Potency is reported as inconclusive: 25.1 µM [inhibitor, full curve, poor fit]. For `C#CCOc1ccc(/C=C2/C(=O)ON=C2C)cc1OCC`, the Potency was inconclusive: 56.2 µM [inhibitor, partial curve]. In the case of `O=C(N/N=C\C=C\c1ccco1)c1cncc(Br)c1`, the Potency is reported as inconclusive: 89.1 µM [inhibitor, single point]. With `CN(C)S(=O)(=O)c1cccc(-c2nn(-c3ccccc3)cc2/C=C2\SC(=S)N(CC(=O)O)C2=O)c1` the Potency was inconclusive: 50.1 µM [inhibitor, partial curve]. For `CC(=O)Nc1ccc(S(=O)(=O)NCC(=O)NNC(=O)c2csc(N3CCOCC3)n2)cc1`, the Potency was “inactive”. With `COc1ccc(CCn2c(O)cc3nn(-c4nc5ccccc5s4)c(=O)c-3c2C)cc1` the Potency was inconclusive: 50.1 µM [inhibitor, partial curve]. In the case of `O=C(/C=C/c1ccc(N2CCC(c3ccccc3)=N2)cc1)c1ccccc1`, the Potency is reported as active: 50.1 µM. In the case of `COc1cc(/C=C/c2nc(-c3ccccc3O)n[nH]2)cc(OC)c1OC`, the Potency is reported as inconclusive: 50.1 µM [inhibitor, partial curve, poor fit]. For `COc1ccc(-c2cn3ccccc3n2)cc1[N+](=O)[O-]`, the Potency was inconclusive: 35.5 µM [inhibitor, single point]. In the case of `CCOc1cc(/C=C2/NC(=O)NC2=O)cc(Br)c1OCc1ccc(C(=O)O)cc1`, the Potency is reported as inconclusive: 50.1 µM [inhibitor, partial curve]. In the case of `Cc1ccc(NC(=S)N2CCN(S(=O)(=O)c3ccc(C)cc3)CC2)cc1`, the Potency is reported as inconclusive: 35.5 µM [inhibitor, single point]. For `O=C1ON=C(c2ccccc2)/C1=C/c1ccccc1`, the Potency was “inactive”. `O=C(Nc1ccc(-c2ccc3nncn3n2)cc1)c1ccc(Br)o1` was tested, and the Potency was inconclusive: 89.1 µM [inhibitor, single point]. `O=C(CSc1nc2nc(-c3cccs3)cc(C(F)(F)F)c2c(=O)[nH]1)Nc1ccc(F)c(F)c1` was tested, and the Potency was inconclusive: 28.2 µM [inhibitor, partial curve]. In the case of `O=C1C(Cl)=C(NCCc2ccccc2)C(=O)c2ccccc21`, the Potency is reported as active: 28.2 µM. With `COc1ccc(/C=C(\C#N)c2nc3ccccc3[nH]2)cc1O` the Potency was inconclusive: 50.1 µM [inhibitor, partial curve]. In the case of `CC(=O)[C@@H]1[C@@H]2C(=O)N(c3ccccc3F)C(=O)[C@@H]2[C@H]2c3ccccc3C=NN12`, the Potency is reported as inconclusive: 3.55 µM [inhibitor, full curve, poor fit]. With `CCn1c(SCC(=O)N/N=C/C(C)=C/c2ccco2)nnc1-c1ccccc1` the Potency was inconclusive: 56.2 µM [inhibitor, partial curve]. `CN(C)/C=C/C(=O)c1ccc2noc(-c3ccccc3)c2c1` was tested, and the activity change, negative = inhibition was inactive: 1.93% [at 11.6 µM]. For `O=C1/C(=C/c2ccccc2)N=C(N2CCOCC2)N1c1cccc(Cl)c1`, the Potency was inconclusive: 10 µM [inhibitor, partial curve]. In the case of `CCOc1ccc(C(=O)CCN2CCCCC2)cc1`, the Potency is reported as inconclusive: 44.7 µM [inhibitor, partial curve]. For `N#C/C(=C\c1ccncc1)c1nc2ccccc2c(=O)[nH]1`, the Potency was inconclusive: 31.6 µM [inhibitor, partial curve, poor fit]. In the case of `CCn1cc(C(=O)O)c(=O)c2cc(F)c(N3CCN(C(=S)NC(=O)c4ccccc4Br)CC3)cc21`, the Potency is reported as inconclusive: 39.8 µM [inhibitor, partial curve]. For `Cc1c(Cl)cccc1NC(=O)Cn1nnc(C(=O)NCc2cccs2)c1N`, the Potency was inconclusive: 39.8 µM [inhibitor, single point]. For `S=c1[nH]nc(-c2ccco2)n1Cc1ccccc1`, the Potency was “inactive”. In the case of `Cc1cc(C(=O)NN=C(CCC(=O)O)c2cccs2)c(C)o1`, the Potency is reported as inconclusive: 39.8 µM [inhibitor, partial curve]. In the case of `O=c1[nH]c2cc3c(cc2cc1CN(Cc1ccccc1)Cc1nnnn1Cc1ccco1)OCCO3`, the Potency is reported as inconclusive: 50.1 µM [inhibitor, partial curve]. `Cc1cc(C(=O)OCC(=O)Nc2cc(Cl)ccc2C)c(C)o1` was tested, and the Potency was inconclusive: 20 µM [inhibitor, single point].

— PubChem BioAssay AID651768 (National Center for Advancing Translational Sciences (NCATS), 2012)
% is scaled to controls: 0 for no effect and ±100 for the full control effect; potency is read from the fitted curve at half-maximal effect.
Also: nearly all actives have a fitted effect of over 55% in size.
